In paper PMC7819943, “Rice protein-binding microarrays: a tool to detect cis-acting elements near promoter regions in rice” one finds binding signal data, which are given here for 54 sequences.

Amino acid sequences for entries named in this document (tags omitted).
UniProt Q0JBA9, entry or part of it: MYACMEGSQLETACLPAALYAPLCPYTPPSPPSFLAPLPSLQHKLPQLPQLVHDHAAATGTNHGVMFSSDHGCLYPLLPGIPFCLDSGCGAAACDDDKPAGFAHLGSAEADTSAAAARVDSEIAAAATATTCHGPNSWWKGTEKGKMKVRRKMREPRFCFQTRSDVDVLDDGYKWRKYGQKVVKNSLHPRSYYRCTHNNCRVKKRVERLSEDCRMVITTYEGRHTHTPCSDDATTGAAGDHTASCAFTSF

Some of the results follow.

This assay concerns the target OsWRKY34 (Oryza sativa, UniProt Q0JBA9 1-250). The experiment in a line: protein-binding microarray (RPBM); PBS, 2% BSA, 51.3 ng/ul salmon testes DNA, 50 uM zinc acetate, 200 nM TF, 25 C, 1 h; high values mean tight binding. Conditions: protein: recombinant; tags: N-terminal polyhistidine and DsRed monomer fusion (pET32a); label: CyDye5-dUTP incorporated in the synthesized complementary strand; 3' TTTTT single-stranded linker to array surface; dsDNA, one strand shown. Put shortly: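 Transcription factors were made in E. coli BL21-CodonPlus as N-terminal fusions to a polyhistidine tag and DsRed, then purified on Ni–NTA. After primer extension with Cy5-dUTP and blocking with 2% BSA, a custom Agilent array was exposed for 1 h at 25 °C to 200 nM protein in PBS, 2% BSA, salmon testes DNA and 50 µM zinc acetate. Washed arrays were scanned on an Axon 4000B, and the binding signal is per-feature fluorescence intensity in arbitrary units.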
For the sequence “TTATATGTATAGGCATACACTTTGTATTTATATGTATATTCGGAGTCACCTAGTGCAG”, the binding signal is 8050 fluorescence intensity (a.u.).
On to “GCTCTCGCCGCCGCCGCGGCGTCCTCGCTGCGGTCTTCTCCGGAGTCACCTAGTGCAG”, for which the binding signal is 9720 fluorescence intensity (a.u.).
The value for “CTATTATGGCTTCCTTAAAGTTGCACCCTTTTGTTTGCGCCGGAGTCACCTAGTGCAG” was 8910 fluorescence intensity (a.u.); that for “ATAGCATAATTCCATTGCCGTCCTATACGTTGACCAAATTCGGAGTCACCTAGTGCAG” was 13400 fluorescence intensity (a.u.); that for “TCTACAAACTTGGTCAAACTTAAAACAGTTTGACTTTGACCGGAGTCACCTAGTGCAG” was 14600 fluorescence intensity (a.u.).
For “GGGCTTAGCTCCACACAACACCTCTCATTTGGCATTTTTTCGGAGTCACCTAGTGCAG” the value was 9690 fluorescence intensity (a.u.).
For “AAGTTGGCCAAGCATCATTCTTGCTGTAAATCTATCTTGTCGGAGTCACCTAGTGCAG” the value was 8730 fluorescence intensity (a.u.); for “GTGATCTTATGGCAATCTGAAGTCATTGTCGTATTTTTCTCGGAGTCACCTAGTGCAG”, 8390 fluorescence intensity (a.u.); for “CCCGGTCTCTTGTTATACCTGTTACTCCTGGCCCGAAACGCGGAGTCACCTAGTGCAG”, 15400 fluorescence intensity (a.u.).
As to “ATCTCAGCGTCTCTCTTCATCCTAATCACCTCGATCATTCCGGAGTCACCTAGTGCAG”, the binding signal is 10100 fluorescence intensity (a.u.).
Regarding “TCTCTCTCTCTCCTTCGGCTCATTCGTCACTGTTCCACCGCGGAGTCACCTAGTGCAG”, the binding signal was 11300 fluorescence intensity (a.u.).
As for “TGGTAAGCAGTTGTTTTTCTATGGCCATGTTGAGTGGATACGGAGTCACCTAGTGCAG”, the binding signal is 8390 fluorescence intensity (a.u.).
The value for “GTTTAGTTCCCAATTTTTTCTTTAAAATTTTAACTTTTTCCGGAGTCACCTAGTGCAG” was 8870 fluorescence intensity (a.u.); that for “GTGACCTTTTCTCGCGTGCGGATTGTATCTCCGGCTGCGCCGGAGTCACCTAGTGCAG” was 9890 fluorescence intensity (a.u.).
For “AGATGAGAGGTTTGGTTGGTTGGATGGTGGGGAGCGCCCGCGGAGTCACCTAGTGCAG”, the binding signal is 10400 fluorescence intensity (a.u.).
The value for “CCACAACATCGCCGAAGCAGTTCGCCATCTCTCGATCGATCGGAGTCACCTAGTGCAG” was 8100 fluorescence intensity (a.u.); that for “TCTATTCGTCCGTAAAAAACCAACATAGTATCGGATGTGACGGAGTCACCTAGTGCAG” was 8190 fluorescence intensity (a.u.); that for “GGTTAAAATGATAGAGGTGGTGTAGATGTGGTGTATTATACGGAGTCACCTAGTGCAG” was 8260 fluorescence intensity (a.u.).
Take “CGCGGGGTCAGTTTTTAGCAGCAGCAGTACAGTAGTTGGCCGGAGTCACCTAGTGCAG”: the binding signal was 8300 fluorescence intensity (a.u.).
The value for “ATACTTGCTTATTCCTCCTCACCATTCCTACCACATCACACGGAGTCACCTAGTGCAG” was 8770 fluorescence intensity (a.u.); that for “GCAGAGTTTCCGGTTGCCACCGCACCCGTCATGCTTCTTCCGGAGTCACCTAGTGCAG” was 10300 fluorescence intensity (a.u.).
For “TTAATGTATGACGCCGTTGACTTTTTAATAAACGTTTGACCGGAGTCACCTAGTGCAG” the value was 40900 fluorescence intensity (a.u.); for “CAACGGCGAATCAACGCCCGAACCGACTCTTTTATCTTTTCGGAGTCACCTAGTGCAG”, 9920 fluorescence intensity (a.u.).
For “GATTTGGTTTTTGGTGCCCTTCTCTTCTTCCATTTGCTCACGGAGTCACCTAGTGCAG” the value was 8850 fluorescence intensity (a.u.); for “GGTCTCCACCCGCCAGCGTGATTGACTGTCCTTGGGCCCTCGGAGTCACCTAGTGCAG”, 8910 fluorescence intensity (a.u.); for “CCGTCTCCGCCTCTCTCGCTCGCGCCGCCGGCCGCCGGCGCGGAGTCACCTAGTGCAG”, 9060 fluorescence intensity (a.u.).
Regarding “CAGAATCTTATGTGCATCGCCCAATTATACTTGCCAATCTCGGAGTCACCTAGTGCAG”, the binding signal was 8360 fluorescence intensity (a.u.).
For the sequence “CACCACCACCTTGACTCCACGCACCGCCATCGACTCCTCACGGAGTCACCTAGTGCAG”, the binding signal was 9420 fluorescence intensity (a.u.).
Turning to “TGTTCATGACTTTCTGGTCTTATCACCTCTTCAGCTCTTCCGGAGTCACCTAGTGCAG”, the binding signal is 10800 fluorescence intensity (a.u.).
Take “ATGCTTGCCTTCTTCTTATTCTCCTTCCCTATGGTCTTCTCGGAGTCACCTAGTGCAG”: the binding signal was 8770 fluorescence intensity (a.u.).
Consider “ATATTTGTAGTACTTTTATGTTTTCGCTACTCCCTCCATACGGAGTCACCTAGTGCAG”, for which the binding signal was 8260 fluorescence intensity (a.u.).
For “GGTGTTCCGGCTCTCCGCACCACCGCGCCACGCCGCTCGCCGGAGTCACCTAGTGCAG” the value was 9180 fluorescence intensity (a.u.).
Take “ATTGCTACGCGTGTTTGTATTGTGTGAGATTTTTGCATGTCGGAGTCACCTAGTGCAG”: the binding signal is 9740 fluorescence intensity (a.u.).
Take “TGTTCGGTGGGCGAGGAGAGGAGTGGGTGGGAGTGGACTGCGGAGTCACCTAGTGCAG”: the binding signal was 8780 fluorescence intensity (a.u.).
“TTCTATATAGACTCTAGTCTCCTCTTCTAATATTCCTTATCGGAGTCACCTAGTGCAG”: the binding signal is 8140 fluorescence intensity (a.u.).
The value for “TCCATCCATGTACATCGCCATCTTGCCGGTCAGCGTGCACCGGAGTCACCTAGTGCAG” was 14100 fluorescence intensity (a.u.).
With “AGCGGAGCCGTTCTCCACCTTCTGCACTACCGTATTCTCTCGGAGTCACCTAGTGCAG”, the binding signal is 8040 fluorescence intensity (a.u.).
Take “GCTTTTTATTTCTGGTGAGTGGTGACCATTCCTAGTTTCCCGGAGTCACCTAGTGCAG”: the binding signal is 8990 fluorescence intensity (a.u.).
The value for “ATTCTCTTCCTACCTCGTTTAGTTATGCATCTTGCTTCGCCGGAGTCACCTAGTGCAG” was 13200 fluorescence intensity (a.u.).
Turning to “AACCCGTTCACACACATTGTCAGGGACCAGCTCATTACTTCGGAGTCACCTAGTGCAG”, the binding signal is 10400 fluorescence intensity (a.u.).
With “TTGTAGAGATCAGTGAATTTTTTTTGGCGTTGTTTATTCTCGGAGTCACCTAGTGCAG”, the binding signal is 11600 fluorescence intensity (a.u.).
The value for “GCACCTATTTAAGGGGTTTCTAGCTGCTGCAATTTCTTTCCGGAGTCACCTAGTGCAG” was 8190 fluorescence intensity (a.u.); that for “GCTGTTCTTGGTTCTCGTGCTCTGATCCATTTGGCAAAATCGGAGTCACCTAGTGCAG” was 11200 fluorescence intensity (a.u.); that for “GCAATTTTGATGTGTGCCGTTCTTTATTACTACGTGTTAGCGGAGTCACCTAGTGCAG” was 9480 fluorescence intensity (a.u.).
For “CTCTATCACCGCCAGTCTGACCGGCATACACAGCCCGGTCCGGAGTCACCTAGTGCAG” the value was 10100 fluorescence intensity (a.u.).
For “TATATATATATATATATATATATATATTCGACTTCTATATCGGAGTCACCTAGTGCAG” the value was 14200 fluorescence intensity (a.u.); for “TCCTGATCCCCTCACACCACCACGCGGCCCTCGGTCTTCCCGGAGTCACCTAGTGCAG”, 8240 fluorescence intensity (a.u.).
For “AAATGTGTGCTAGTTATCTGTTATGGATGAAACCCTCACTCGGAGTCACCTAGTGCAG”, the binding signal is 9970 fluorescence intensity (a.u.).
As for “AGACAACACATTTCTCTCATAAAGCTTTCACTGGCATATACGGAGTCACCTAGTGCAG”, the binding signal was 8410 fluorescence intensity (a.u.).
For “AATGTGGCTGCATATTTGTGTTTATTCATCTTTCTTCCTACGGAGTCACCTAGTGCAG”, the binding signal is 9370 fluorescence intensity (a.u.).
As to “TGGTGTTTGGTTGGAGGGACTAAAGTAGGGCTAAACTTTACGGAGTCACCTAGTGCAG”, the binding signal was 8870 fluorescence intensity (a.u.).
For “CAACTACGCCGCCTCCATGAGCTCCATCACGGTGCTTCGCCGGAGTCACCTAGTGCAG” the value was 8120 fluorescence intensity (a.u.); for “TTCAGATACATTATATTAGGAGGGGTCACAGGTTAAATTTCGGAGTCACCTAGTGCAG”, 9080 fluorescence intensity (a.u.).
Regarding “GGGAGTACATTTCTATTAGTTGCCAGATGAGAATTTGCAACGGAGTCACCTAGTGCAG”, the binding signal was 8180 fluorescence intensity (a.u.).
